System: E. coli 8–8
Experiment: microbe, parasite or virus in culture
Type: cell-based
Conditions: Escherichia coli; Mueller Hinton broth, 50 μL of 1 × 10^6 CFU/mL + 50 μL sample, 37 °C, 16–20 h; three independent replicates, each in triplicate; read-out: minimum inhibitory concentration (MIC) E. coli 8–8
Protocol: E. coli 8–8, A. baumannii 2982, and S. aureus 13–1 were procured from the Bioresource Collection and Research Center (BCRC), Taiwan. NDM-1-positive E. coli BAA 2452 was procured from ATCC. All strains were cultured in Mueller Hinton broth (MHB). The concentration of bacteria was identified by the absorbance at OD600. The colony forming units (CFU) corresponding to different OD600 values were identified by plating on the Mueller Hinton agar (MHA) plate.
Antibacterial analysis was performed according to a standard protocol.[32] Overnight cultures of test bacteria were prepared and freshly subcultured. Briefly, 50 μL of 1 × 10^6 CFU/mL bacterial cells was treated with 50 μL of peptide or conjugate at different concentrations in a 96-well plate. The plates were incubated at 37 °C for 16–20 h. The lowest concentration of peptide/conjugate showing no growth was considered the minimum inhibitory concentration (MIC). To identify the MIC (MBC), 5 μL of incubated suspensions from growth-free wells was plated onto MHA and incubated overnight at 37 °C. The lowest concentration of peptide/conjugate showing no growth on the MHA plate was considered to be the MBC. The experiments were performed in three independent replicates, each in triplicate.

- MIC: < 0.25 µM
SMILES: C[C@@H](O)[C@H]1C(=O)N2C(C(=O)O)=C(S[C@@H]3CN[C@H](C(=O)N(C)C)C3)[C@H](C)[C@H]12 [Meropenem]
